The list is a part of this screen's results and no random one: it is rich in T/C values a quarter to a half above the control, in often repeated tests (any T/C) and in doses without a T/C. Other doses and runs of a compound stand elsewhere. T/C: endpoint of the treated group in % of that of the vehicle group. Some doses have a count of surviving animals in place of a T/C: the source holds a T/C of zero for them, seemingly a mark for toxic or unscored doses. Some doses without a T/C left all or most animals alive at the check, yet need not have been tolerated: the source hardly ever lists a survival T/C far under the control, and the zero likely stands for such cases as well. Counts of survivors are from the toxicity check (mostly the fifth day) where no day follows; animals may have died later. Schedules are NCI's codes, taken here to give the interval after Q, in days (D) or hours (H), and the number of doses after X. Some entries were tested several times; the values are given in rising order. Where survival is the endpoint, this PubChem deposit counts one and a half times the control or more as active, and values a quarter to a half above the control carry no call in these data; other NCI protocols may use other cut-offs. Signs of the kind (2×) count equal records among those shown.
System: B6C3F1 mice, Lewis lung carcinoma iv, survival T/C
Experiment: NCI In Vivo Anticancer Drug Screen. Data for tumor model Lewis Lung Carcinoma (intravenous) in B6C3F1 mice
Details: T/C endpoint: median survival time, higher T/C = longer survival
Outline: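 Mice carrying transplanted tumors received test compound; survival in the treated group was divided by that of the vehicle-treated control group to give the T/C value.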

[1] = dose: 50.0 mg/kg/injection, schedule: Q01DX009 (ip), vehicle: Klucel (hydroxypropylcellulose) (HPC)
[2] = dose: 100.0 mg/kg/injection, schedule: Q01DX009 (ip), vehicle: Klucel (hydroxypropylcellulose) (HPC)
[3] = dose: 200.0 mg/kg/injection, schedule: Q01DX009 (ip), vehicle: Klucel (hydroxypropylcellulose) (HPC)
[4] = dose: 12.5 mg/kg/injection, schedule: Q01DX009 (ip), vehicle: saline with Tween-80
[5] = dose: 400.0 mg/kg/injection, schedule: Q01DX009 (ip), vehicle: saline with Tween-80
[6] = dose: 25.0 mg/kg/injection, schedule: Q01DX009 (ip), vehicle: saline with Tween-80
[7] = dose: 100.0 mg/kg/injection, schedule: Q01DX009 (ip), vehicle: saline with Tween-80
[8] = dose: 200.0 mg/kg/injection, schedule: Q01DX009 (ip), vehicle: saline with Tween-80
[9] = dose: 25.0 mg/kg/injection, schedule: Q01DX009 (ip), vehicle: saline
[10] = dose: 50.0 mg/kg/injection, schedule: Q01DX009 (ip), vehicle: saline
[11] = dose: 24.0 mg/kg/injection, schedule: Q01DX009 (ip), vehicle: water

`CCOC(OCC)C(=O)OCC(=O)[C@]1(O)Cc2c(O)c3c(c(O)c2[C@@H](OC2CC(N)C(O)C(C)O2)C1)C(=O)c1c(OC)cccc1C3=O` (some centres undefined) was tested, and the T/C (dose: 0.25 mg/kg/injection, schedule: Q01DX009 (ip), vehicle: water) was 128 % of control, the survivor count (dose: 4.0 mg/kg/injection, schedule: Q01DX009 (ip), vehicle: water) was 10 of 10 and the survivor count (dose: 8.0 mg/kg/injection, schedule: Q01DX009 (ip), vehicle: water) was 9 of 10.
In the case of `C=C(C)C1C2CC3(C)C4(CO4)C4OC4C3(O)C1C(=O)O2` (centres undefined), the survivor count (dose: 4.0 mg/kg/injection, schedule: Q01DX008 (ip), vehicle: Klucel (hydroxypropylcellulose) (HPC)) is reported as 8 of 10.
`CN(C)N=Nc1ccccc1` was tested, and the T/C [1] was 131 % of control, the survivor count [2] was 10 of 10 and the survivor count [3] was 0 of 10.
`O=C1SC(c2ccccc2)=S=C1c1ccccc1` was tested, and the survivor count (dose: 800.0 mg/kg/injection, schedule: Q01DX009 (ip), vehicle: saline with Tween-80) was 8 of 10.
In the case of `O=c1[nH]cc(F)c(=O)[nH]1`, the T/C (dose: 20.0 mg/kg/injection, schedule: Q01DX009 (ip), vehicle: saline) is reported as 128 % of control, the survivor count (dose: 40.0 mg/kg/injection, schedule: Q01DX009 (ip), vehicle: saline) is reported as 9 of 10 and 10 of 10 and the survivor count (dose: 80.0 mg/kg/injection, schedule: Q01DX009 (ip), vehicle: saline) is reported as 10 of 10.
For `O=C1c2cccc3cc([N+](=O)[O-])cc(c23)C(=O)N1CCN1CCCC1`, the survivor count (dose: 1.5 mg/kg/injection, schedule: Q01DX009 (ip), vehicle: saline with Tween-80) was 9 of 10, the survivor count (dose: 12.0 mg/kg/injection, schedule: Q01DX009 (ip), vehicle: saline with Tween-80) was 10 of 10 and the survivor count (dose: 24.0 mg/kg/injection, schedule: Q01DX009 (ip), vehicle: saline with Tween-80) was 4 of 10. For the same compound, the survivor count (dose: 48.0 mg/kg/injection, schedule: Q01DX009 (ip), vehicle: saline with Tween-80) was 0 of 10.
In the case of `Nc1ncnc2c1nnn2C1OC(CO)C(O)C1O` (centres undefined), the survivor count [2] is reported as 9 of 10 and the survivor count [3] is reported as 3 of 10.
With `O=C(O)C(CSC(c1ccccc1)(c1ccccc1)c1ccccc1)N=Cc1cccs1` (centres undefined) the survivor count (dose: 100.0 mg/kg/injection, schedule: Q01DX009 (ip), vehicle: suspension in saline) was 9 of 10, the survivor count (dose: 200.0 mg/kg/injection, schedule: Q01DX009 (ip), vehicle: suspension in saline) was 10 of 10 and the survivor count (dose: 400.0 mg/kg/injection, schedule: Q01DX009 (ip), vehicle: suspension in saline) was 2 of 10.
`Cc1cc(O)c2c(c1O)C(=O)C13C(=C2O)C(=O)C2C(O)C1C1C(O)C3C(=O)C3=C(O)c4c(O)cc(C)c(O)c4C(=O)C321` (centres undefined) was tested, and the survivor count (dose: 1.56 mg/kg/injection, schedule: Q01DX009 (ip), vehicle: saline with Tween-80) was 9 of 10, the survivor count (dose: 3.12 mg/kg/injection, schedule: Q01DX009 (ip), vehicle: saline with Tween-80) was 8 of 10 and the survivor count (dose: 6.25 mg/kg/injection, schedule: Q01DX009 (ip), vehicle: saline with Tween-80) was 1 of 10 and 2 of 10. The survivor count [4] was 0 of 10.
In the case of `COc1cccc(C2NC(=O)c3c(n[nH]c3N)S2)c1O` (centres undefined), the survivor count [5] is reported as 3 of 10.
`Nc1nc(N)c2c(ccc3c2ccn3Cc2cccc([N+](=O)[O-])c2)n1` was tested, and the survivor count [4] was 8 of 10 and the survivor count [6] was 9 of 10.
For `NS(=O)(=O)OCCCCCCCOS(N)(=O)=O`, the survivor count [7] was 10 of 10 and the survivor count [8] was 10 of 10.
With `O=C(O)c1cc(Cc2ccc(O)c(C(=O)O)c2)ccc1O` (tested in a mixture with another compound) the survivor count [3] was 1 of 10.
With `Cc1c(N)nc([C@H](CC(N)=O)NC[C@H](N)C(N)=O)nc1C(=O)N[C@H](C(=O)N[C@H](C)[C@@H](O)[C@H](C)C(=O)N[C@H](C(=O)NCCc1nc(-c2nc(C(=O)NCCC[S+](C)C)cs2)cs1)[C@@H](C)O)C(OC1OC(CO)C(O)C(O)C1OC1OC(CO)C(O)C(OC(N)=O)C1O)c1cnc[nH]1` (some centres undefined) the T/C (dose: 4.0 mg/kg/injection, schedule: Q01DX009 (ip), vehicle: saline) was 104, 119, 120, 142 % of control, the T/C (dose: 8.0 mg/kg/injection, schedule: Q01DX009 (ip), vehicle: saline) was 123, 124, 143 % of control (2×) and the T/C (dose: 16.0 mg/kg/injection, schedule: Q01DX009 (ip), vehicle: saline) was 143, 145, 150, 171 % of control. For the same compound, the survivor count (dose: 32.0 mg/kg/injection, schedule: Q01DX009 (ip), vehicle: saline) was 9 of 10 and 10 of 10 and the survivor count (dose: 64.0 mg/kg/injection, schedule: Q01DX009 (ip), vehicle: saline) was 10 of 10.
In the case of `ClCCCN1CCCCC1CCl` (centres undefined), the survivor count [9] is reported as 10 of 10.
For `O=C(O)C1CC(c2ccccc2)=NN1c1ccccc1` (centres undefined), the survivor count (dose: 400.0 mg/kg/injection, schedule: Q01DX009 (ip), vehicle: water) was 0 of 10.
In the case of `COc1cc2c3c(cccc3c1)C(=O)N(CCN(C)C)C2=O`, the survivor count (dose: 160.0 mg/kg/injection, schedule: Q01DX009 (ip), vehicle: saline with Tween-80) is reported as 5 of 10.
In the case of `COC(=O)NC1C(C)OC(OC2C/C=C(/C)C3C=CC4C(OC5CC(OC6CCC(OC7CC(O)C(OC8CCC(O)C(C)O8)C(C)O7)C(C)O6)C(OC(C)=O)C(C)O5)C(C)CC(C)C4C3(C)/C(O)=C3/C(=O)OC4(CC(C=O)=CC(O)C4/C=C\2C)C3=O)CC1(C)[N+](=O)[O-]` (centres undefined), the survivor count (dose: 10.0 mg/kg/injection, schedule: Q01DX009 (ip), vehicle: water) is reported as 10 of 10 and the survivor count (dose: 20.0 mg/kg/injection, schedule: Q01DX009 (ip), vehicle: water) is reported as 2 of 10.
`C[CH2][Ge]([CH2]C)[CH2]C.C[CH2][Ge]([CH2]C)[CH2]C.C[CH2][Ge]([CH2]C)[O][Ge]([CH2]C)[CH2]C` was tested, and the survivor count [8] was 0 of 10.
For `Cc1ccc(NCCN(C)C)c2c(=O)c3cc(O)ccc3sc12`, the T/C [1] was 133 % of control, the survivor count [2] was 7 of 10 and the survivor count [3] was 0 of 10 and 6 of 10. For the same compound, the survivor count (dose: 400.0 mg/kg/injection, schedule: Q01DX009 (ip), vehicle: Klucel (hydroxypropylcellulose) (HPC)) was 0 of 10.
With `NNC(=S)N/N=C/c1ccccn1` the survivor count [10] was 0 of 10 and the survivor count (dose: 50.0 mg/kg/injection, schedule: Q01DX009 (ip), vehicle: suspension in saline) was 7 of 10.
With `C=C1C(=O)C2=CC1CCC(=O)C1(C)CCC(OC(C)=O)C(C)(C)C1CC2O` (centres undefined) the survivor count (dose: 120.0 mg/kg/injection, schedule: Q01DX009 (ip), vehicle: Klucel (hydroxypropylcellulose) (HPC)) was 4 of 10.
`CC(O)CCC(=O)c1ccoc1` (centres undefined) was tested, and the survivor count (dose: 10.0 mg/kg/injection, schedule: Q03HX027 (ip), vehicle: saline) was 2 of 10.
In the case of `CCOC(=O)c1[nH]c2cccc3c2c1CC(Br)C3=O` (centres undefined), the survivor count [7] is reported as 3 of 10, the survivor count [8] is reported as 0 of 10 and the survivor count [5] is reported as 0 of 10.
In the case of `Cn1c2ccccc2c2ccc3c(c21)C(=O)C=CC3=O`, the survivor count [6] is reported as 8 of 10, the survivor count (dose: 50.0 mg/kg/injection, schedule: Q01DX009 (ip), vehicle: saline with Tween-80) is reported as 8 of 10 and the survivor count [7] is reported as 1 of 10. The survivor count [8] was 0 of 10.
In the case of `CN(C)CCOc1ccc2c(c1)C/C(=C/c1ncc([N+](=O)[O-])n1C)C2=O`, the survivor count [7] is reported as 5 of 5 and the survivor count [8] is reported as 9 of 10.
With `CNc1cccnc1/C=N/NC(N)=S` the survivor count [7] was 10 of 10, the survivor count [8] was 10 of 10 and the survivor count [5] was 3 of 10.
`C[n+]1c(-c2cccc3ccccc23)c2cc(N)ccc2c2ccccc21` was tested, and the survivor count (dose: 12.5 mg/kg/injection, schedule: Q01DX009 (ip), vehicle: saline) was 10 of 10, the survivor count [9] was 7 of 10 and the survivor count [10] was 2 of 10.
In the case of `COc1cccc2c1C(=O)c1c(O)c3c(c(O)c1C2=O)C[C@H](O)C[C@@H]3OC1CC(N)C(O)C(C)O1` (some centres undefined), the T/C (dose: 12.0 mg/kg/injection, schedule: Q01DX009 (ip), vehicle: water) is reported as 131 % of control and the survivor count [11] is reported as 10 of 10.
For `CCCCCCCC(=O)N/N=C(\CO)[C@]1(O)Cc2c(O)c3c(c(O)c2[C@@H](OC2CC(N)C(O)C(C)O2)C1)C(=O)c1c(OC)cccc1C3=O` (some centres undefined), the survivor count [11] was 9 of 10, the survivor count (dose: 48.0 mg/kg/injection, schedule: Q01DX009 (ip), vehicle: saline) was 10 of 10 and the survivor count (dose: 48.0 mg/kg/injection, schedule: Q01DX009 (ip), vehicle: water) was 10 of 10.

Reference: PubChem BioAssay AID276 (DTP/NCI, 2004)
